{"source": "patent US20250074946A1", "about": "“USE OF SE-DR AFFINITY PEPTIDE IN PREPARING DRUG FOR TREATING RHEUMATIC DISEASE” (HEBEI FITNESS BIOTECHNOLOGY CO., LTD., priority 2021, published 2025)", "key": {"[1]": {"tested_on": "CIA rats with latent tuberculosis infection", "conditions": "peptides 0.2 mmol, adalimumab 1 mg/kg, tail i.v. once every other day for 21 days"}, "[2]": {"tested_on": "CIA mice infected with chronic hepatitis B", "test": "CIA mice infected with chronic hepatitis B (Example 8)", "type": "in vivo, mouse", "conditions": "peptides 50 μmol, Abatacept 100 μg, tail i.v. once every other day for 27 days", "procedure": "Establishment of chronic hepatitis B model in mice: DBA/1 mice were injected with Raav8-1. 3 HBV (1×10^12 vg/mL) via tail vein to establish HBV chronic hepatitis B model.\nDBA/1 mice infected with chronic hepatitis B were used to establish CIA model with chronic hepatitis B infection. Methods: Two days after the mice were injected with Raav8-1.3 HBV (1×10^12 vg/mL) via tail vein, the emulsion of bovine C II and CFA (containing 100 μg collagen) was intradermally injected into the tail head of the mice for immunization. After 21 days, the mice were boosted once by intraperitoneal injection of the emulsion (containing 100 μg collagen) prepared by bovine C II and IFA. Thereafter, the morphological changes of the four paws of the mice were examined every day, and the mice were randomly assigned to the treatment group at inflammation score of 1. […] Another 10 mice with latent hepatitis B infection were not subjected to model establishment and set as the control group. PBS was administrated to both the model group and the control group. […] The inflammation scores of the four paws of the mice in each group were evaluated during the administration. The serological indicators for virus injection and liver function of the mice were detected on the day of booster immunization (22 days after tail vein injection) and at the time of sacrifice."}}, "note": "Not every detail of the peptide structures is certain; ends, links or a residue may be inferred.", "data": [{"smiles": "CC(C)C[C@H](NC(=O)CNC(=O)[C@H](CCCNC(N)=O)NC(=O)[C@H](C)NC(=O)[C@@H]1CCCN1C(=O)[C@@H]1CCCN1C(=O)[C@@H]1CCCN1C(=O)[C@H](C)NC(=O)[C@@H]1CCCN1C(=O)[C@H](CCCNC(N)=O)NC(=O)[C@H](CO)NC(=O)[C@H](CCCNC(=N)N)NC(=O)CNC(=O)[C@H](CCCNC(N)=O)NC(=O)[C@@H](NC(=O)[C@H](CO)NC(=O)[C@H](CCC(=O)O)NC(=O)[C@@H](NC(=O)[C@H](CO)NC(=O)[C@H](CO)NC(=O)[C@H](CCCNC(N)=O)NC(=O)[C@H](CC(C)C)NC(=O)[C@H](CCCNC(N)=O)NC(=O)[C@@H](N)C(C)C)C(C)C)[C@@H](C)O)C(=O)N[C@H](C(=O)O)[C@@H](C)O", "note": "[APL37, VCitLCitSSVESTCitGRSCitPAPPPACitGLT]", "values": [{"measurement": "Inflammation score and area under the time curve (AUC)", "setting": "[1]", "result": "53.19 ± 29.18"}, {"measurement": "Inflammation score and area under the time curve (AUC)", "setting": "[2]", "result": "96.45 ± 49.73"}]}]}
